This note sets out measurements from the supplement of paper PMC4604168 (melanoma cell lines).

This is one part of the list. Repeats are few or missing, and single values can be far off.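 The apoptosis fraction was the count of cleaved-PARP antibody-stained nuclei relative to all DNA-stained nuclei, imaged in 1,536-well plates. Screening doses were set so most cells survived, and baseline and induced cleaved-PARP levels vary greatly across cell lines.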

In the assay the test system is UACC62. The assay is described as follows: cleaved PARP positive nuclei fraction relative to DMSO control; melanoma cells; higher = more apoptosis. The note with it: library dose: low library concentration; 72 h.
With `C=CCNC1=C2C[C@@H](C)C[C@H](OC)[C@H](O)[C@@H](C)/C=C(\C)[C@H](OC(N)=O)[C@@H](OC)/C=C\C=C(/C)C(=O)NC(=CC1=O)C2=O` [Tanespimycin] + Cc1cc(SCc2sc(-c3ccc(C(F)(F)F)c(F)c3)nc2C)ccc1OCC(=O)O [GW0742] (first compound 0.002 µM, partner dose 2 µM), the “cleaved PARP positive nuclei fraction” value stood at 34.8%.

In the case of `O=C(O)c1ccc2c(c1)nc(Nc1cccc(Cl)c1)c1ccncc12` + O=C(Oc1ccc([N+](=O)[O-])cc1)N1CCC(C(O)(c2ccc3c(c2)OCO3)c2ccc3c(c2)OCO3)CC1 [JZL184] (first compound 0.4 µM, partner dose 1 µM), the “cleaved PARP positive nuclei fraction” value amounted to 120%.

Consider `N.N.[Cl][Pt][Cl]` [cisplatin] + Cc1cc(N2CCOCC2)cc2[nH]c(-c3c(NC[C@@H](O)c4cccc(Cl)c4)cc[nH]c3=O)nc12 [BMS536924] (first compound 1.6 µM, partner dose 0.2 µM), for which the “cleaved PARP positive nuclei fraction” value amounted to 164%.

In the case of `CC1(C)CCC(c2ccc(Cl)cc2)=C(CN2CCN(c3ccc(C(=O)NS(=O)(=O)c4ccc(N[C@H](CCN5CCOCC5)CSc5ccccc5)c(S(=O)(=O)C(F)(F)F)c4)cc3)CC2)C1` + O=C(Oc1ccc([N+](=O)[O-])cc1)N1CCC(C(O)(c2ccc3c(c2)OCO3)c2ccc3c(c2)OCO3)CC1 [JZL184] (first compound 0.4 µM, partner dose 1 µM), the “cleaved PARP positive nuclei fraction” value is 122%.

For the molecule `Cc1cc(Nc2cc(N3CCN(C)CC3)nc(/C=C/c3ccccc3)n2)n[nH]1` + C/C(O)=C(\C#N)C(=O)Nc1cc(Br)ccc1Br [LFM-A13] (first compound 0.04 µM, partner dose 2 µM), the “cleaved PARP positive nuclei fraction” value came to 150%.

For `N.N.[Cl][Pt][Cl]` [cisplatin] + OCCn1cc(-c2cnc3nnn(Cc4ccc5ncccc5c4)c3n2)cn1 [PF04217903] (first compound 1.6 µM, partner dose 1 µM), the “cleaved PARP positive nuclei fraction” value is 73.3%.

In the case of `Cn1cc(C2=C(c3cn(C4CCN(Cc5ccccn5)CC4)c4ccccc34)C(=O)NC2=O)c2ccccc21` [Enzastaurin] + COc1ccc(COc2ccc(Cc3cnc(N)nc3N)cc2OC)cc1 [GW2580] (first compound 0.8 µM, partner dose 1 µM), the “cleaved PARP positive nuclei fraction” value was found to be 51.1%.

For the molecule `Cn1cc(C2=C(c3cn(C4CCN(Cc5ccccn5)CC4)c4ccccc34)C(=O)NC2=O)c2ccccc21` [Enzastaurin] + c1cc(-c2cnn3cc(-c4ccc(OCCN5CCCCC5)cc4)cnc23)ccn1 [Dorsomorphin] (first compound 0.8 µM, partner dose 0.4 µM), the “cleaved PARP positive nuclei fraction” value amounted to 121%.

With `C[As](C)SC[C@H](NC(=O)CC[C@H](N)C(=O)O)C(=O)NCC(=O)O` [Darinaparsin] + C=CCn1c(=O)c2cnc(Nc3ccc(N4CCN(C)CC4)cc3)nc2n1-c1cccc(C(C)(C)O)n1 [MK1775] (first compound 0.4 µM, partner dose 0.02 µM), the “cleaved PARP positive nuclei fraction” value was 132%.

As to `Cn1cc(C2=C(c3cn(C4CCN(Cc5ccccn5)CC4)c4ccccc34)C(=O)NC2=O)c2ccccc21` [Enzastaurin] + OCCn1cc(-c2cnc3nnn(Cc4ccc5ncccc5c4)c3n2)cn1 [PF04217903] (first compound 0.8 µM, partner dose 1 µM), the “cleaved PARP positive nuclei fraction” value amounted to 41.8%.

As for `N.N.[Cl][Pt][Cl]` [cisplatin] + CN(NC(=O)CC(=O)NN(C)C(=S)c1ccccc1)C(=S)c1ccccc1 [STA4783] (first compound 1.6 µM, partner dose 0.006 µM), the “cleaved PARP positive nuclei fraction” value stood at 30.9%.

Take `C=C(c1ccc(C(=O)O)cc1)c1cc2c(cc1C)C(C)(C)CCC2(C)C` [Bexarotene] + O=C(Oc1ccc([N+](=O)[O-])cc1)N1CCC(C(O)(c2ccc3c(c2)OCO3)c2ccc3c(c2)OCO3)CC1 [JZL184] (first compound 2 µM, partner dose 1 µM): the “cleaved PARP positive nuclei fraction” value was 114%.

As to `Cn1sc(=O)n(Cc2ccccc2)c1=O` + O=C(Oc1ccc([N+](=O)[O-])cc1)N1CCC(C(O)(c2ccc3c(c2)OCO3)c2ccc3c(c2)OCO3)CC1 [JZL184] (first compound 0.4 µM, partner dose 1 µM), the “cleaved PARP positive nuclei fraction” value is 154%.

On to `C[As](C)SC[C@H](NC(=O)CC[C@H](N)C(=O)O)C(=O)NCC(=O)O` [Darinaparsin] + COc1cc(Nc2ncc(F)c(Nc3ccc4c(n3)NC(=O)C(C)(C)O4)n2)cc(OC)c1OC [Tamatinib] (first compound 0.4 µM, partner dose 0.4 µM), for which the “cleaved PARP positive nuclei fraction” value came out at 100%.
